Inconclusive results, whose numbers are uncertain, are shown with a selection of clear calls. A potency beside an inconclusive call is a rough fit, not a confirmed value. Calls of active or inactive are those of the source. How the source made its calls: active means hit-call score of the fitted dose curve at least 0.9, where 1 is the maximum; inconclusive means response in the unintended direction; inactive means score below 0.9.
biological target: human Vitamin D Receptor (VDR), VDR (gene 7421) (UniProt P11473); test: ATG_VDR_TRANS: Attagene TRANS-FACTORIAL HepG2 Assay for human Vitamin D Receptor (VDR) (AID 2283022)
How it was run: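 Transactivation by an exogenous VDR-Gal4 chimera in transiently transfected HepG2 cells was measured as reporter transcript level 24 hours after chemical treatment. RT-PCR products were analysed by capillary electrophoresis and fitted in the positive direction relative to DMSO.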

By UniProt entry, the sequences of proteins in these tests, tags left out. Where a name states a change or a piece, a line headed by the entry shows the natural chain unless it says otherwise.
UniProt P11473: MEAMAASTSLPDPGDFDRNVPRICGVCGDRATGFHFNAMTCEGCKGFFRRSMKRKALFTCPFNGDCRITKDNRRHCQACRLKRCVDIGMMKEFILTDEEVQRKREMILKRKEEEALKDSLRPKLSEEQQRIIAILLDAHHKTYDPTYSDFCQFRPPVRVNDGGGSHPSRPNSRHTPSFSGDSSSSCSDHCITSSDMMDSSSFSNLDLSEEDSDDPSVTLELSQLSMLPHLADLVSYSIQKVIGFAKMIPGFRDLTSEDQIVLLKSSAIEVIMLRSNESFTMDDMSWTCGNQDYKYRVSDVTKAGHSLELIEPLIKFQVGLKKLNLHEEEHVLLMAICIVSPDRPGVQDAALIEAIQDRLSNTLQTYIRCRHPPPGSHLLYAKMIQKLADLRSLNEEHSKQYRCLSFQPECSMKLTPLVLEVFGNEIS

| Compound | outcome | AC50 |
| --- | --- | --- |
| COc1ccc([C@@H]2CC(=O)c3c(O)cc(O[C@@H]4O[C@H](CO[C@@H]5O[C@@H](C)[C@H](O)[C@@H](O)[C@H]5O)[C@@H](O)[C@H](O)[C@H]4O)cc3O2)cc1OC | inactive |  |
| CCC=C(C)C=O |  | inconclusive: 100 µM |
| Cc1ccc(Nc2ccc(O)c3c2C(=O)c2ccccc2C3=O)cc1 | inactive |  |
| O=[N+]([O-])c1ccc(O)cc1C(F)(F)F | inactive |  |
| CCCCC(CC)CN1C(=O)C2C3C=CC(C3)C2C1=O (configuration not stated) |  | inconclusive: 0.103 µM |
| CCN(CCO)S(=O)(=O)C(F)(F)C(F)(F)C(F)(F)C(F)(F)C(F)(F)C(F)(F)C(F)(F)C(F)(F)F | inactive |  |
| CC/C=C\CCOC(=O)c1ccccc1 |  | inconclusive: 26.7 µM |
| CCCCCCCC/C=C\CCCCCCCC(=O)N(C)CC(=O)O |  | inconclusive: 11.1 µM |
| CCc1cccc(O)c1 | inactive |  |
| CCOC(=O)COC(=O)c1cc(Oc2ccc(C(F)(F)F)cc2Cl)ccc1[N+](=O)[O-] |  | inconclusive: 1.66 µM |
| O=C(Cl)C(F)(F)C(F)(F)C(F)(F)C(F)(F)C(F)(F)C(F)(F)C(F)(F)C(F)(F)F | inactive |  |
| CC1COCc2cc3c(cc21)C(C)(C)C(C)C3(C)C (configuration not stated) |  | active: 128 µM |
| CCCCCCCCCC(C)C=O (configuration not stated) | inactive |  |

2 consecutive entries already listed:

| Compound | outcome | AC50 |
| --- | --- | --- |
| CC1COCc2cc3c(cc21)C(C)(C)C(C)C3(C)C (configuration not stated) |  | active: 128 µM |
| CCCCCCCCCC(C)C=O (configuration not stated) | inactive |  |

— PubChem BioAssay (EPA / NIEHS)
